Assay results reported in the supplement of paper PMC10727501.
The list shows a part of the results. This data set is noisy: repeats of one test often differ as much as different tests do.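 Free-swimming zebrafish larvae were assessed for O-bend response probability to dark flashes (naive: first five; training: remaining flashes across four 60-flash blocks; test: later 60-flash block) and for OMR turning toward alternating leftward/rightward LED motion. Six treated larvae were compared against sixty 0.1% DMSO controls; hits required |SSMD|≥2.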

test system: Danio rerio larvae (5 dpf, TLF); assay: OMR-Perf (SSMD vs DMSO vehicle); higher = higher than vehicle (e.g. higher dark-flash O-bend response probability, or better optomotor performance); settings: 10 µM; pre-incubation: 30-90 min

Structure (SMILES) | OMR-Perf
Oc1ccc(OCc2ccccc2)cc1 [Monobenzone] | -0.375
CCCCNc1ccc(C(=O)OCCN(C)C)cc1.Cl [Tetracaine HCl] | 0.678
CC(C)NCC(O)COc1ccc(CCOCC2CC2)cc1 (stereo not drawn) [Betaxolol] | 0.274
COc1cc2ncnc(Nc3ccc(O)c(Br)c3)c2cc1OC | -0.0159
CO/N=C(/C(=O)N[C@H]1C(=O)N2C(C(=O)O)=C(Cn3ccc(=N)n3CCO)CS[C@H]12)c1csc(N)n1.O=S(=O)(O)O [Cefoselis Sulfate] | 0.96
Nc1ncnc2c1ncn2[C@H]1O[C@H](CO)[C@@H](O)[C@H]1O [Adenosine] | -0.403
O=C(O)c1ccc(Nc2ncc3c(n2)-c2ccc(Cl)cc2C(c2c(F)cccc2F)=NC3)cc1 | 0.0494
CNC(=O)c1ccc(C)c(-n2c(C)cc(OCc3ccc(F)cc3F)c(Br)c2=O)c1 | -0.224
CCOc1cc(N)c(Cl)cc1C(=O)NCC1CN(Cc2ccc(F)cc2)CCO1.O=C(O)CC(O)(CC(=O)O)C(=O)O (stereo not drawn) [Mosapride Citrate] | -1.03
CC(C)(C)c1ccc(-c2nc3ccccc3[nH]2)cc1 | -1.02
COc1ccc(C(C)=O)c(O)c1 [Paeonol] | -0.517
O=C1c2ccccc2C(=O)C1c1ccccc1 [Phenindione] | -0.431
OC[C@H](O)CN1CCN(c2ccccc2)CC1 [Levodropropizine] | -0.228
